# The other results are listed elsewhere or left out. These are raw signals, not scaled to a control.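 Primary screen: polymyxin B was added at a level permeabilizing Salmonella outer membranes while sparing inner membranes. DMSO wells, both with and without polymyxin B, established maximum growth. Plate-to-plate variation meant each plate was ranked on its own, and the lowest-OD600 compounds were selected as hits.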
# System: Salmonella enterica serovar Typhimurium SL1344
# Assay: bacterial growth OD600 after 18 h with compound and polymyxin B; higher = more bacterial growth (less inhibition)
# Settings: 50 µM, Mueller-Hinton broth
Structure (SMILES),bacterial growth OD600 (polymyxin B 0.75 µg/mL),bacterial growth OD600 (polymyxin B 1 µg/mL)
CCc1ccc(CN(C)c2ccc(-c3nc(COC)no3)cn2)nc1,0.764,–
OCCOc1ccccc1CN1CCCC(Nc2ccc(F)c(F)c2)C1 (stereo not given),–,0.995
COc1ccc(C(=O)N2CCC(C3(C)NC(=O)N(Cc4cccc(OC)c4OC)C3=O)CC2)cc1 (stereo not given),0.804,–
CCN1CCN(CC(O)COc2cccc(CN3CCCCO3)c2)CC1 (stereo not given),–,1.13
COC(=O)C1CCCCN1C(=O)c1c(OC)cc(=O)n2c1CCN(Cc1ccc(C(C)C)cc1)CC2 (stereo not given),0.815,–
C=C(C)CNC(=O)c1ccc(OC2CCN(C(=O)C3CC3)CC2)cc1,–,1.02
CC#CC(=O)N1CCc2[nH]nc(-c3ccc4c(c3)OCO4)c2C1,0.71,–
CN(Cc1ccccn1)Cc1cn(Cc2ccccc2)nc1-c1ccc2c(c1)OCO2,–,0.815
Cc1ccc2c(c1)CN(Cc1ccccc1O)CC(C)O2 (stereo not given),0.661,–
C=CCNC(=O)N1CCC2(CCCN(CC3CCCCC3)C2=O)C1 (stereo not given),–,0.809
COc1cccc(OCc2nc(C(=O)NCc3cccnc3)co2)c1,–,0.991
COc1ccc(NC(=O)CCC2CCN(Cc3ccc(SC)cc3)CC2)c(OC)c1,0.773,–
COc1cccc(OCc2nc(C(=O)N3CCCC3c3nccs3)co2)c1 (stereo not given),–,0.947
COc1cccc(OCC(O)CNC(=O)c2oc3ccc(C)cc3c2C)c1 (stereo not given),–,0.884
COc1ccccc1OC1CCN(C(=O)CCC2(Cc3ccccc3)CCC(=O)N2)CC1 (stereo not given),0.762,–
O=C(C1CCN(c2nc(-c3ccccc3)nc3c2CCC3)CC1)N1CCC[C@H]1CO,0.924,–
Cn1cnnc1SCC(=O)NC1CCCN(CCc2ccccc2)C1 (stereo not given),0.939,–
COCCn1cc(C(=O)NCC2(c3ccccc3)CCCC2)c(=O)c(C(=O)N2CCCCC2CO)c1 (stereo not given),0.818,–
O=C(CCC1(Cc2cccs2)CCC(=O)N1)NCc1nc(-c2ccccc2)cs1 (stereo not given),0.862,–
CC(C)(CO)CNC(=O)C1CCC(=O)N(CCc2cccc(F)c2)C1 (stereo not given),–,1

# A second format for part of the listing above:
Structure (SMILES)	bacterial growth OD600 (polymyxin B 0.75 µg/mL)	bacterial growth OD600 (polymyxin B 1 µg/mL)
COc1ccccc1OC1CCN(C(=O)CCC2(Cc3ccccc3)CCC(=O)N2)CC1 (stereo not given)	0.762	–
O=C(C1CCN(c2nc(-c3ccccc3)nc3c2CCC3)CC1)N1CCC[C@H]1CO	0.924	–

# — the supplement of paper PMC12889115
